The values below come from the supplement of paper PMC12872613.

Structures can show the parent of a compound that is named as a salt. This is one part of the list. Cut-off read from the data, not from the text of the source: active = 0.7 or more and inactive = the rest. Repeats are few or missing, and single values can be far off.

The subject of this assay is MiaPaCa-2 CLSA-25. Put plainly: cell death relative to DMSO vehicle (fraction); higher = more cytotoxic. To be noted: 5 µM; treatment time 48 h; medium cystine 25 µM.
As to `Cc1c(C(=O)NN2CCOCC2)nn(-c2ccc(Cl)cc2Cl)c1-c1ccc(I)cc1`, the cell death is inactive: 0.169.

For the compound `CC(C)(Oc1ccc(C2CC2(Cl)Cl)cc1)C(=O)O` (stereo unspecified) [Ciprofibrate], the cell death is inactive: -0.0233.

`c1cc(-c2cnn3cc(-c4ccc(OCCN5CCCCC5)cc4)cnc23)ccn1` [Dorsomorphin dihydrochloride]: the cell death was inactive: 0.561.

Consider `C=C[C@H]1[C@H](O[C@@H]2O[C@H](CO)[C@@H](O)[C@H](O)[C@H]2O)OC=C2C(=O)OCC[C@]21O` [Swertiamarin], for which the cell death is active: 0.729.

As for `NS(=O)(=O)NCCNc1nonc1/C(=N/O)Nc1ccc(F)c(Br)c1` [Epacadostat], the cell death is inactive: 0.197.

For `CCc1ccc(CCOc2ccc(CC3SC(=O)NC3=O)cc2)nc1` (stereo unspecified) [Pioglitazone hydrochloride], the cell death is active: 0.843.

As to `CC(=O)SCC(Cc1ccccc1)C(=O)NCC(=O)OCc1ccccc1` (stereo unspecified) [Racecadotril], the cell death is inactive: 0.0927.

On to `O=C(/C=C/c1ccc2ccc(C(F)(F)F)cc2n1)c1ccncc1`, for which the cell death is active: 0.915.

Take `Cn1nnc(-c2ccc(-c3ccc(N4C[C@H](CO)OC4=O)cc3F)cn2)n1` [Torezolid]: the cell death is inactive: 0.0276.

Turning to `C=CCN1CC[C@]23c4c5ccc(O)c4O[C@H]2[C@@H](OCCOCCOCCOCCOCCOCCOCCOC)CC[C@@]3(O)[C@H]1C5` [Naloxegol oxalate], the cell death is inactive: 0.222.

On to `Nc1ncnc2c1ncn2[C@@H]1O[C@H](COP(=O)(O)O)[C@@H](O)[C@H]1O` [Adenosine 5'-monophosphate], for which the cell death is inactive: 0.226.

Consider `Cn1cc(C[C@@H](N)C(=O)O)c2ccccc21` [Indoximod], for which the cell death is inactive: 0.213.

With `CN(Cc1cnc2nc(N)nc(N)c2n1)c1ccc(C(=O)N[C@@H](CCC(=O)O)C(=O)O)cc1` [Methotrexate], the cell death was inactive: 0.358.

Consider `CCCCCCCCCCCCCCCCOc1nc2ccc(C)cc2c(=O)o1` [Cetilistat], for which the cell death was inactive: 0.191.

For the compound `C=CCc1ccc(O)c(-c2cc(CC=C)ccc2O)c1` [Magnolol], the cell death is inactive: 0.552.

On to `COc1cccc(-c2cc(F)ccc2[C@H]2Cc3nc(N)nc(C)c3C(=O)N2)n1`, for which the cell death was inactive: 0.131.

Regarding `CN(C)CC(=O)O` [N,N-Dimethylglycine], the cell death is inactive: -0.00321.

Regarding `OC[C@H]1O[C@@H](c2ccc(Cl)c(Cc3ccc(O[C@H]4CCOC4)cc3)c2)[C@H](O)[C@@H](O)[C@@H]1O` [Empagliflozin], the cell death was active: 0.793.

`COc1cc([C@H]2OC[C@H]3[C@@H]2CO[C@@H]3c2ccc(O[C@@H]3O[C@H](CO)[C@@H](O)[C@H](O)[C@H]3O)c(OC)c2)ccc1O[C@@H]1O[C@H](CO)[C@@H](O)[C@H](O)[C@H]1O` [Pinoresinol diglucoside]: the cell death is inactive: 0.112.

For `O=C(O)c1cc(-c2ccccc2)nc2ccccc12` [Cinchophen], the cell death was inactive: -0.0242.

With `O=S(=O)(NCCSSCCNS(=O)(=O)c1cc(Cl)ccc1Cl)c1cc(Cl)ccc1Cl`, the cell death is inactive: 0.583.

In the case of `CC(C)c1cc(C(C)C)c(CC(=O)NS(=O)(=O)Oc2c(C(C)C)cccc2C(C)C)c(C(C)C)c1` [Avasimibe], the cell death was active: 0.785.

`CNC(=C[N+](=O)[O-])NCCSCc1csc(CN(C)C)n1` [Nizatidine]: the cell death is inactive: 0.0431.

Turning to `Nc1nc2[nH]cc(CCc3ccc(C(=O)N[C@@H](CCC(=O)O)C(=O)O)cc3)c2c(=O)[nH]1` [Pemetrexed Disodium Hydrate], the cell death was inactive: 0.0535.

Consider `CCCCCCNC(=O)Nc1ccc(S(=O)(=O)Nc2ccc(CCNC[C@H](O)COc3ccc(O)cc3)cc2)cc1`, for which the cell death was inactive: 0.554.

Regarding `C[N+](C)(C)C[C@H](O)CC(=O)O` [L-Carnitine hydrochloride], the cell death was inactive: 0.232.

On to `COc1ccc(-c2ccccc2)cc1NS(=O)(=O)c1cc(Cl)cc(Cl)c1O`, for which the cell death is inactive: 0.155.

Consider `O=C(Nc1cccc(-c2ccccc2)c1)OC1CCCCC1`, for which the cell death was inactive: 0.222.

As for `CCNC1(C(N)=O)CCN(c2ncnc3c2nc(-c2ccccc2Cl)n3-c2ccc(Cl)cc2)CC1` [Otenabant hydrochloride], the cell death was inactive: 0.314.

On to `OC(Cn1cncn1)(Cn1cncn1)c1ccc(F)cc1F` [Fluconazole], for which the cell death is inactive: 0.0441.

On to `CC(=O)Oc1ccc(C(c2ccc(OC(C)=O)cc2)c2ccccn2)cc1` [Bisacodyl], for which the cell death is inactive: 0.206.
